# In article PMC13022675:
# The chains behind the UniProt entries cited, without tags or fusion partners. Residues count along the entry.
# UniProt P27824, residues 21-592: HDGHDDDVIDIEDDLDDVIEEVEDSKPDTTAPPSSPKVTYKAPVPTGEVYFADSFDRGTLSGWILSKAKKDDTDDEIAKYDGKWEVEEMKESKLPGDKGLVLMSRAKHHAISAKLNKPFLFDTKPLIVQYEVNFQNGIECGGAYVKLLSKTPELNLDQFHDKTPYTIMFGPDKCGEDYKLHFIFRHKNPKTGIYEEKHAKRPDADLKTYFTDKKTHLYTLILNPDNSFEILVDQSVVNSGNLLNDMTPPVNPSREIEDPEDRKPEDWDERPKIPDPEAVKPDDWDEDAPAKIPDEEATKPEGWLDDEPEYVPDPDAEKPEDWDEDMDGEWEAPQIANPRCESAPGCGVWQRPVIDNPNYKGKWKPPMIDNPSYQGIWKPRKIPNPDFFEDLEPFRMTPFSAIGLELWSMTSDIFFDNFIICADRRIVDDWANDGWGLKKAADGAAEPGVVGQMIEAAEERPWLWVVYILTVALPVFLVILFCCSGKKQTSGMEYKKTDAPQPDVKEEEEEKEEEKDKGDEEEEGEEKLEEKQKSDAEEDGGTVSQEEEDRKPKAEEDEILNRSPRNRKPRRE
# Results are given in words; binding and its absence hold for the method and conditions named. Binding seen in cells or lysates may run through a third protein. These calls come from enrichment with a bait or labelling near it, and not all partners need be listed.
# Legend:
# [1] = target: GFP-tagged MR1A (MR1-GFP) expressed in clonal cell line D4 (valine to isoleucine at position 12) (UniProt Q95460); test: affinity purification with mass spectrometry; MR1-GFP immunoprecipitated with GFPTrap magnetic agarose from 1% digitonin lysates of D4 and D6 cells (dox, 100 μM 6-FP overnight), 4 °C 1 h; on-bead trypsin digestion, data-dependent acquisition (DDA), label-free
# [2] = target: GFP-tagged MR1A (MR1-GFP) expressed in clonal cell line D4 (valine to isoleucine at position 12) (UniProt Q95460); test: affinity purification with mass spectrometry; MR1-GFP immunoprecipitated with GFPTrap magnetic agarose from 1% digitonin lysates of D4 and D6 cells (dox, 100 μM 6-FP overnight), 4 °C 1 h; in-gel digestion, data-independent acquisition (DIA), label-free
binding [1],binding [2],Substance
binds,,calnexin (from UniProt P27824 21-592)
,binds,sequestosome 1 (from UniProt Q13501 1-440)
